These are yes or no findings as the source states them, for the method shown. In cells and extracts the contact can be indirect. Some binding calls cover weakened binding; strength is not graded here. Sequences can lack the tags named with a protein.
Molecular target: T1, GST-RDH14 (retinol dehydrogenase 14, wild type) (human) (UniProt Q9HBH5)
T1 sequence: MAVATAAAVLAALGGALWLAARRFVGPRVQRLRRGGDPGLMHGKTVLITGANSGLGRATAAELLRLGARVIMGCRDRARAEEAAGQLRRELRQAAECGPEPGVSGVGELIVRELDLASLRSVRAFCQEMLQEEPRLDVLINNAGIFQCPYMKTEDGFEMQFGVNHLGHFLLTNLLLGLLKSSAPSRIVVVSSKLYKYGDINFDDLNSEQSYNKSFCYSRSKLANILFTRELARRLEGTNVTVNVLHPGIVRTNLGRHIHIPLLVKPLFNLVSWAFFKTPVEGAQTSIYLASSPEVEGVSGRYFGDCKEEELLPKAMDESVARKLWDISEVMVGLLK
Assay: pull-down; GST fusion baits from E. coli immobilised on glutathione agarose resin (2 h, 4 °C), washed 5 times; 800 µL SK-N-SH cell lysate as prey, overnight at 4 °C; eluted with 10 mM glutathione; western blot with anti-TMEM206 or anti-FAM5B antibody; only the target purified

By UniProt entry, the sequences of proteins in these tests, tags left out.
UniProt Q9H813: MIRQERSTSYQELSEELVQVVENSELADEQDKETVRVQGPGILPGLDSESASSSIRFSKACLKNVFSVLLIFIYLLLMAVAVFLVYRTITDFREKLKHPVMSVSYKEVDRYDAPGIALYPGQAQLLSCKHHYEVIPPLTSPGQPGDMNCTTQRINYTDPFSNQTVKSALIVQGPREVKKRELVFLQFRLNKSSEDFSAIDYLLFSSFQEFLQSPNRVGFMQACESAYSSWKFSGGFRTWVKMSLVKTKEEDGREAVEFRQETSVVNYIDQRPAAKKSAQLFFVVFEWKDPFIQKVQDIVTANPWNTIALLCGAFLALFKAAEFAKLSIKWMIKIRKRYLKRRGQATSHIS

Molecule: proton-activated chloride channel 1 (PACC1/TMEM206) (from UniProt Q9H813 1-350)
- binding: binds

B1: bone morphogenic protein/retinoic acid inducible neural-specific protein 2 (BRINP2) (protein, UniProt Q9C0B6 34-783)
chain: VSATAAAVVPEQHASVAGQHPLDWLLTDRGPFHRAQEYADFMERYRQGFTTRYRIYREFARWKVNNLALERKDFFSLPLPLAPEFIRNIRLLGRRPNLQQVTENLIKKYGTHFLLSATLGGEESLTIFVDKQKLGRKTETTGGASIIGGSGNSTAVSLETLHQLAASYFIDRESTLRRLHHIQIATGAIKVTETRTGPLGCSNYDNLDSVSSVLVQSPENKVQLLGLQVLLPEYLRERFVAAALSYITCSSEGELVCKENDCWCKCSPTFPECNCPDADIQAMEDSLLQIQDSWATHNRQFEESEEFQALLKRLPDDRFLNSTAISQFWAMDTSLQHRYQQLGAGLKVLFKKTHRILRRLFNLCKRCHRQPRFRLPKERSLSYWWNRIQSLLYCGESTFPGTFLEQSHSCTCPYDQSSCQGPIPCALGEGPACAHCAPDNSTRCGSCNPGYVLAQGLCRPEVAESLENFLGLETDLQDLELKYLLQKQDSRIEVHSIFISNDMRLGSWFDPSWRKRMLLTLKSNKYKPGLVHVMLALSLQICLTKNSTLEPVMAIYVNPFGGSHSESWFMPVNEGSFPDWERTNVDAAAQCQNWTITLGNRWKTFFETVHVYLRSRIKSLDDSSNETIYYEPLEMTDPSKNLGYMKINTLQVFGYSLPFDPDAIRDLILQLDYPYTQGSQDSALLQLIELRDRVNQLSPPGKVRLDLFSCLLRHRLKLANNEVGRIQSSLRAFNSKLPNPVEYETGKLCS
- binding: no binding
